PubChem BioAssay AID1259314, Drosophila RNAi Screening Center – 2017
Here is an unselected part of about 3,100 reagents tested. Over the whole deposit, 289 (9.3%) are marked active. 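Active includes both higher and lower ATP than plate average; check the z-score sign for direction.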 Reagents against one gene are numbered here. A plus sign joins genes that one reagent is predicted to hit. Not stated in the record: the amount of reagent.

Aim: 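Genes whose knock-down alters cell survival under toxic manganese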 (primary screen)
System: Drosophila S2R+ cells
Reagent: long dsRNA against Drosophila genes
Timing: 5 days (4 days knock-down, then 1 day metal exposure)
Conditions: manganese chloride added to 15 mM for 24 hours
Measured: 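Cellular ATP measured by luciferase light, scaled to the plate mean, averaged across replicates and z-scored over plates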
Direction: mean ATP z-score: higher = more ATP than the plate average, more viable cells under manganese
Call rule: 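a mean ATP z-score past 1.5 in either direction is called active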
Meaning of the calls: active = strong ATP change, up or down; inactive = no strong ATP change

Gene | dsRNA no. | mean ATP z-score | outcome
robo3 (roundabout 3) | 1 | 4.04 | active
robo3 (roundabout 3) | 2 | -0.354 | inactive
Oatp58Dc (Organic anion transporting polypeptide 58Dc) | 1 | -1.01 | inactive
Oatp58Dc (Organic anion transporting polypeptide 58Dc) | 2 | 1.07 | inactive
Fitm (Fat storage inducing transmembrane protein) | 1 | -1.63 | active
Fitm (Fat storage inducing transmembrane protein) | 2 | 0.126 | inactive
CG32054 | 1 | -1.1 | inactive
CG32054 | 2 | 7.64 | active
Rab3-GEF (Rab3 GDP-GTP exchange factor) | 1 | 0.235 | inactive
Rab3-GEF (Rab3 GDP-GTP exchange factor) | 2 | -0.339 | inactive
Rab3-GEF (Rab3 GDP-GTP exchange factor) | 3 | 0.267 | inactive
Papst2 (PAPS transporter 2) | 1 | 1.66 | active
Papst2 (PAPS transporter 2) | 2 | 1.11 | inactive
M6 | 1 | 0.314 | inactive
M6 | 2 | -1.15 | inactive
CG11110 | 1 | -0.668 | inactive
CG11110 | 2 | -1.45 | inactive
Gr61a (Gustatory receptor 61a) | 1 | 0.599 | inactive
Gr61a (Gustatory receptor 61a) | 2 | -0.689 | inactive
Pkd2 (Polycystic kidney disease 2) | 1 | 0.33 | inactive
Pkd2 (Polycystic kidney disease 2) | 2 | 0.0847 | inactive
CG30043 | 1 | -0.306 | inactive
CG30043 | 2 | -0.225 | inactive
CG13794 | 1 | 2.34 | active
CG13794 | 2 | 0.565 | inactive
CG31259 | 1 | -0.14 | inactive
CG31259 | 2 | -0.392 | inactive
CG9270 | 1 | -1.12 | inactive
mah (mahogany) | 1 | -0.306 | inactive
mah (mahogany) | 2 | 0.402 | inactive
CG31999 | 1 | -0.0263 | inactive
CG31999 | 2 | -0.191 | inactive
Ent1 (Equilibrative nucleoside transporter 1) | 1 | 1.32 | inactive
trn (tartan) | 1 | -0.532 | inactive
CG14053 | 1 | -0.00633 | inactive
CG14053 | 2 | -0.486 | inactive
Sdc (Syndecan) | 1 | -0.835 | inactive
CG9467 | 1 | -0.17 | inactive
Sply (Sphingosine-1-phosphate lyase) | 1 | -2.4 | active
Sply (Sphingosine-1-phosphate lyase) | 2 | -0.01 | inactive
ItgaPS4 (Integrin alphaPS4 subunit) | 1 | 0.115 | inactive
CG1724 | 1 | -1.4 | inactive
CG1724 | 2 | 3.96 | active
TM9SF2 (Transmembrane 9 superfamily protein member 2) | 1 | 0.366 | inactive
TM9SF2 (Transmembrane 9 superfamily protein member 2) | 2 | -0.539 | inactive
CG33639 | 1 | 0.074 | inactive
CG33639 | 2 | 2.31 | active
PK1-R (Pyrokinin 1 receptor) | 1 | -0.253 | inactive
Npc1b (Niemann-Pick type C-1b) | 1 | 0.227 | inactive
Npc1b (Niemann-Pick type C-1b) | 2 | 0.322 | inactive
KCNQ (KCNQ potassium channel) | 1 | -1.1 | inactive
KCNQ (KCNQ potassium channel) | 2 | -1.14 | inactive
Or24a (Odorant receptor 24a) | 1 | 0.0678 | inactive
Msp300 (Muscle-specific protein 300 kDa) | 1 | 1 | inactive
Msp300 (Muscle-specific protein 300 kDa) | 2 | -0.433 | inactive
Msp300 (Muscle-specific protein 300 kDa) | 3 | 0.279 | inactive
Msp300 (Muscle-specific protein 300 kDa) | 4 | 1.13 | inactive
CG12194 | 1 | -0.345 | inactive
CG12194 | 2 | 1.26 | inactive
bark (bark beetle) | 1 | -0.0607 | inactive
bark (bark beetle) | 2 | -0.594 | inactive
Rh2 (Rhodopsin 2) | 1 | 0.268 | inactive
Rh2 (Rhodopsin 2) | 2 | 1.58 | active
Toll-9 | 1 | -1.27 | inactive
nes (nessy) | 1 | -0.178 | inactive
nes (nessy) | 2 | -1.02 | inactive
CG34396 | 1 | 0.821 | inactive
CG34396 | 2 | -0.633 | inactive
CG34396 | 3 | -0.289 | inactive
Syx5 (Syntaxin 5) | 1 | 1.57 | active
wun2 (wunen-2) | 1 | 0.696 | inactive
wun2 (wunen-2) | 2 | -0.0763 | inactive
wun2 (wunen-2) | 3 | -0.157 | inactive
CG2003 | 1 | 0.652 | inactive
CG2003 | 2 | -0.397 | inactive
CG14204 | 1 | -0.239 | inactive
CG14204 | 2 | 0.502 | inactive
LRP1 (LDL receptor protein 1) | 1 | -0.171 | inactive
CG11099 | 1 | -0.474 | inactive
CG33673 | 1 | -0.38 | inactive
CG33673 | 2 | 0.628 | inactive
PGAP1 (Post-GPI attachment to proteins 1) | 1 | 1.49 | inactive
PGAP1 (Post-GPI attachment to proteins 1) | 2 | 0.371 | inactive
Tmep (Transmembrane endosomal protein) | 1 | -1.57 | active
Tmep (Transmembrane endosomal protein) | 2 | -0.0453 | inactive
rho-6 (rhomboid-6) | 1 | 1.01 | inactive
rho-6 (rhomboid-6) | 2 | 0.984 | inactive
Atf-2 + CG44247 | 1 | -0.873 | inactive
Atf-2 + CG44247 | 2 | -0.683 | inactive
Cds + Setx | 1 | -0.671 | inactive
NijB (Ninjurin B) | 1 | -0.304 | inactive
NijB (Ninjurin B) | 2 | -0.021 | inactive
Syx17 (Syntaxin 17) | 1 | 1.51 | active
Inx5 (Innexin 5) | 1 | -0.12 | inactive
CG3592 | 1 | -0.175 | inactive
CG3592 | 2 | -0.666 | inactive
ppk12 (pickpocket 12) | 1 | 0.275 | inactive
ppk12 (pickpocket 12) | 2 | -0.468 | inactive
kek3 (kekkon 3) | 1 | -0.277 | inactive
kek3 (kekkon 3) | 2 | 0.127 | inactive
CG17637 | 1 | -1.52 | active
Ir60d (Ionotropic receptor 60d) | 1 | -0.00356 | inactive
Zip42C.1 (Zinc/iron regulated transporter-related protein 42C.1) | 1 | -0.978 | inactive
Esp (Epidermal stripes and patches) | 1 | 0.227 | inactive
Spp (Signal peptide peptidase) | 1 | 0.266 | inactive
Eaat1 (Excitatory amino acid transporter 1) | 1 | 0.716 | inactive
Eaat1 (Excitatory amino acid transporter 1) | 2 | -0.989 | inactive
Rh6 (Rhodopsin 6) | 1 | -0.574 | inactive
Rh6 (Rhodopsin 6) | 2 | -0.809 | inactive
Efr (ER GDP-fucose transporter) | 1 | -0.238 | inactive
Efr (ER GDP-fucose transporter) | 2 | -0.178 | inactive

Laid out differently: 6 of the entries above
Gene	dsRNA no.	mean ATP z-score	outcome
CG11099	1	-0.474	inactive
CG33673	1	-0.38	inactive
CG33673	2	0.628	inactive
PGAP1 (Post-GPI attachment to proteins 1)	1	1.49	inactive
PGAP1 (Post-GPI attachment to proteins 1)	2	0.371	inactive
Tmep (Transmembrane endosomal protein)	1	-1.57	active
